In patent US11300509B2, “Cleavable linkers for protein translation reporting” (9412-1126 Québec inc., priority 2020, dated 2022):
For at least one compound, name, drawing or mass did not settle the structure. No end group written: not given here.

Target: T1, GFP1-10 (Aequorea victoria, UniProt P42212, A206V/E111V/F64L/F99S/I128T/I167V/I171V/K166T/M153T/N105K/Q80R/S205T/S30R/S65T/V163A/Y145F/Y39I)
T1 construct: Residues 1-213 of GFP, corresponding to the first 10 beta strands of GFP (GFP1-10); made in house; host or cells: Escherichia coli BL21(DE3)
Assay: In vitro reconstitution (fluorescence complementation) of split GFP: GFP11 peptide mixed with purified GFP1-10
Settings: read-out: dissociation constant (Kd) of the GFP11 peptide; fluorescence increase over time with varying GFP11 peptide concentrations, one site binding model; R2=0.96
Protocol: FIGS. 1F-G, relating to the stoichiometric production of GFP11 reporter as a function of time using a PTR linker to allow instantaneous detection of protein translation, are graphs that illustrate that reconstitution of split GFP as a function of seconds passed. […] Within the first second of reconstitution, i.e., in milliseconds, fluorescence emission begins (FIG. 1F), and the fluorescence intensity of the reaction rose logarithmically and began to saturate after 5 minutes (FIG. 1G). […] To obtain kinetic measurements of the reconstitution reaction at sub-second timescales, an ultrasensitive fluorescence spectrophotometer was used. […] Fluorescence increase over time from the bimolecular reaction was modeled as pseudo-first order and fit to a one phase association curve to determine the observed rate constant (kobs) of GFP11 peptide binding for each concentration of GFP11 tested. […]
In vitro fluorescence complementation was performed by mixing purified XFP1-10 protein and chemically synthesized XFP11 peptides and the fluorescence intensity of the reaction was collected with a StepOnePlus real-time thermal cycler (Thermo-Fisher). […] XFP11 peptide was added according to different final peptide concentrations and the microplate was immediately loaded into the fluorescence reader. […] Total fluorescence intensity (in photon counts) was collected every 0.1 s or 0.01 s for varying durations. […]

RDHMVLHEYVNAAGIT [GFP11]
Kd: 0.481 ± 0.116 nM
